PubChem BioAssay (NCI)
What follows is the remainder of the data, with few or none of the hits. Activity calls are given as the source filed them. Rule as the data show it: active = growth inhibition above about 70%; inactive = the rest.

Test: NCI Yeast Anticancer Drug Screen. Data for the mlh1 strain (AID 171);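 also: 0% = growth of vehicle-treated control cultures of the same strain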
Conditions: S. cerevisiae mlh1 strain growth inhibition, hits give high values
Procedure: Growth inhibition of yeast strains with defined genetic alterations is measured as a screen for potential anti-cancer activity. Selected strains with alterations in DNA damage repair or cell cycle control were exposed to compounds and growth inhibition was measured relative to vehicle treated controls. The strain used in this assay is mlh1

Measured: growth inhibition

CCOC(=O)CNP(=S)(OCC)OCC
inactive: at 1.2 µM 0% | at 3.7 µM -1% | at 11.0 µM -3% | at 33.0 µM 0% | at 100.0 µM 2%

O=C(NCP(=O)(Oc1ccccc1)Oc1ccccc1)OCc1ccccc1
inactive: at 1.2 µM -1% | at 3.7 µM 2% | at 11.0 µM 2% | at 33.0 µM -1% | at 100.0 µM 1%

O=P1(NNc2ncccn2)SC(NN=C2CCCCC2)=NC12CCCCC2 (stereo not given)
inactive: at 1.2 µM -4% | at 3.7 µM -4% | at 11.0 µM -2% | at 33.0 µM 1% | at 100.0 µM 10%

O=C(O)C(O)C(O)C1[O][Sb][O]C1CO (stereo not given)
inactive: at 1.2 µM -2% | at 3.7 µM -7% | at 11.0 µM -2% | at 33.0 µM -6% | at 100.0 µM 11%

O=C(CCN1CC1)Nc1ccccc1
inactive: at 1.2 µM 7% | at 3.7 µM 0% | at 11.0 µM -3% | at 33.0 µM -2% | at 100.0 µM 47%

Cc1cc[c]([Sb]2[O]C(CO)C(C(O)C(O)C(=O)O)[O]2)cc1 (stereo not given)
inactive: at 1.2 µM -1% | at 3.7 µM -4% | at 11.0 µM -8% | at 33.0 µM -10% | at 100.0 µM -4%

COc1cc2c3cc1Oc1c(O)c(OC)cc4c1[C@H](Cc1ccc(cc1)Oc1cc(ccc1O)C[C@H]3N(C)CC2)N(C)CC4
inactive: at 1.2 µM -3% | at 3.7 µM -14% | at 11.0 µM -6% | at 33.0 µM -11% | at 100.0 µM 3%

CCCCN(CCCC)CC(=O)c1ccc(I)cc1
inactive: at 1.2 µM -5% | at 3.7 µM -1% | at 11.0 µM 4% | at 33.0 µM 12% | at 100.0 µM 29%
